Results from US20220356266A1.
No constants are given. Whether binding was seen depends on the method and setting. Some binding calls cover weakened binding; strength is not graded here.

Chains of the proteins cited; added tags and fusions are not shown. Residues count along the entry.
UniProt Q04609, residues 44-750: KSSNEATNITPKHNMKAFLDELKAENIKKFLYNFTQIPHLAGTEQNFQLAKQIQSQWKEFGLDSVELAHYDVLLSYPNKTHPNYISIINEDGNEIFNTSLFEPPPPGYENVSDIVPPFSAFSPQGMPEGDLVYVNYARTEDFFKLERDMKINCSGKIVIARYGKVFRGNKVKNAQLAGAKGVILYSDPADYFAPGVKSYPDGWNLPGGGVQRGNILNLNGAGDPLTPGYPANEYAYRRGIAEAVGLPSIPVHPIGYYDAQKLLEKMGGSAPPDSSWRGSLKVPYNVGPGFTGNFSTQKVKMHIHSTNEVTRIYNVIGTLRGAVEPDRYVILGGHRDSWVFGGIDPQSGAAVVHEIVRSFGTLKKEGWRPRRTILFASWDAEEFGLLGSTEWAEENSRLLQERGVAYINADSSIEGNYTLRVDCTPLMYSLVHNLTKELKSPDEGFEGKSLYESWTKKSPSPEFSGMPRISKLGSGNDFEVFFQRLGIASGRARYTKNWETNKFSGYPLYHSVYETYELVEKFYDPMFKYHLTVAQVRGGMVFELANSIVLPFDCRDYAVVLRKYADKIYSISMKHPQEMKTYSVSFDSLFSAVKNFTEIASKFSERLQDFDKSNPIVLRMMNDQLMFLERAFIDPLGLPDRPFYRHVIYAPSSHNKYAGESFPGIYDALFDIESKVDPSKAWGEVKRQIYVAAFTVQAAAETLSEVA

Molecular target: PSMA (form used in the binding assay not stated) (UniProt Q04609)
Test: binding assay, method not described

| binding | Binder |
| --- | --- |
| binds | PSMB952 (antibody, V domains shown) VH: EVQLVESGGGLVQPGGSLRLSCAASGFTFSSYAMSWVRQAPGKGLEWVSAISGGIGSTYYADSVKGRFTISRDNSKNTLWLQMNSLRAEDTAVYYCAKDGVGATPYYFDYWGQGTLVTVSS VL: QSVLTQPPSVSAAPGQKVTISCSGSSSNIGINYVSWYQQLPGTAPKLLIYDNNKRPSGIPDRFSGSKSGTSATLGITGLQTGDEADYYCGTWDSSLSAVVFGGGTKLTVL |
| binds | PSMB956 (antibody, V domains shown) VH: EVQLVESGGGLVQPGGSLRLSCAASGFTFSSYAMSWVRQAPGKGLEWVSAISGGSGSTYYADSVKGRFTISRDNSKNTLYLQMNSLRAEDSAVYYCAKDGVGATPYYFDYWGQGTLVTVSS VL: QSVLTQPPSVSAAPGQKVTISCSGSSSNIGINYVSWYQQLPGTAPKLLIYDNNKRPSGIPDRFSGSKSGTSATLGITGLQTGDEADYYCGTWDSSLSAVVFGGGTKLTVL |
